# Structures can show the parent of a compound that is named as a salt. ± gives the standard deviation of the averaged measurements. Shown are results outside the selection of lowest values, which stands elsewhere.
# Tested on: E. coli TESEC Mtb Alr
# Assay: growth (OD600 after 10 h); higher = more growth (less inhibition)
# Conditions: arabinose 100 nM; compound 0.1 mM; raw OD600 reference: median of DMSO wells 0.413, cell-free background 0.052
# Experimental: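 TESEC Mtb Alr E. coli (ΔaraC ΔtolC ΔentC Δalr ΔdadX, arabinose-inducible Mtb Alr) or the Alr+ wild-type control strain, grown in defined M9-fructose medium without D-alanine in 96-well plates with Prestwick library compounds at 0.1 mM and 1% DMSO. Low Alr induction is 0.1 µM arabinose and high induction is 10 mM arabinose.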
row,Structure (SMILES),growth
1,"CN1[C@@H]2CC[C@H]1C[C@@H](OC(=O)C(O)c1ccccc1)C2 (mixture of isomers) [Homatropine hydrobromide (R,S)]",0.409 ± 0.011

# Same assay, conditions: arabinose 10000000 nM; compound 0.1 mM; raw OD600 reference: median of DMSO wells […], cell-free background 0.052
row,Structure (SMILES),growth
1,"CN1[C@@H]2CC[C@H]1C[C@@H](OC(=O)C(O)c1ccccc1)C2 (mixture of isomers) [Homatropine hydrobromide (R,S)]",0.275 ± 0.1

# From the supplement of paper PMC9262897, “Low-cost anti-mycobacterial drug discovery using engineered E. coli” (Nature Communications, 2022)
